Source: publication PMC12643519

The chains behind the UniProt entries cited, without tags or fusion partners.
UniProt P35580: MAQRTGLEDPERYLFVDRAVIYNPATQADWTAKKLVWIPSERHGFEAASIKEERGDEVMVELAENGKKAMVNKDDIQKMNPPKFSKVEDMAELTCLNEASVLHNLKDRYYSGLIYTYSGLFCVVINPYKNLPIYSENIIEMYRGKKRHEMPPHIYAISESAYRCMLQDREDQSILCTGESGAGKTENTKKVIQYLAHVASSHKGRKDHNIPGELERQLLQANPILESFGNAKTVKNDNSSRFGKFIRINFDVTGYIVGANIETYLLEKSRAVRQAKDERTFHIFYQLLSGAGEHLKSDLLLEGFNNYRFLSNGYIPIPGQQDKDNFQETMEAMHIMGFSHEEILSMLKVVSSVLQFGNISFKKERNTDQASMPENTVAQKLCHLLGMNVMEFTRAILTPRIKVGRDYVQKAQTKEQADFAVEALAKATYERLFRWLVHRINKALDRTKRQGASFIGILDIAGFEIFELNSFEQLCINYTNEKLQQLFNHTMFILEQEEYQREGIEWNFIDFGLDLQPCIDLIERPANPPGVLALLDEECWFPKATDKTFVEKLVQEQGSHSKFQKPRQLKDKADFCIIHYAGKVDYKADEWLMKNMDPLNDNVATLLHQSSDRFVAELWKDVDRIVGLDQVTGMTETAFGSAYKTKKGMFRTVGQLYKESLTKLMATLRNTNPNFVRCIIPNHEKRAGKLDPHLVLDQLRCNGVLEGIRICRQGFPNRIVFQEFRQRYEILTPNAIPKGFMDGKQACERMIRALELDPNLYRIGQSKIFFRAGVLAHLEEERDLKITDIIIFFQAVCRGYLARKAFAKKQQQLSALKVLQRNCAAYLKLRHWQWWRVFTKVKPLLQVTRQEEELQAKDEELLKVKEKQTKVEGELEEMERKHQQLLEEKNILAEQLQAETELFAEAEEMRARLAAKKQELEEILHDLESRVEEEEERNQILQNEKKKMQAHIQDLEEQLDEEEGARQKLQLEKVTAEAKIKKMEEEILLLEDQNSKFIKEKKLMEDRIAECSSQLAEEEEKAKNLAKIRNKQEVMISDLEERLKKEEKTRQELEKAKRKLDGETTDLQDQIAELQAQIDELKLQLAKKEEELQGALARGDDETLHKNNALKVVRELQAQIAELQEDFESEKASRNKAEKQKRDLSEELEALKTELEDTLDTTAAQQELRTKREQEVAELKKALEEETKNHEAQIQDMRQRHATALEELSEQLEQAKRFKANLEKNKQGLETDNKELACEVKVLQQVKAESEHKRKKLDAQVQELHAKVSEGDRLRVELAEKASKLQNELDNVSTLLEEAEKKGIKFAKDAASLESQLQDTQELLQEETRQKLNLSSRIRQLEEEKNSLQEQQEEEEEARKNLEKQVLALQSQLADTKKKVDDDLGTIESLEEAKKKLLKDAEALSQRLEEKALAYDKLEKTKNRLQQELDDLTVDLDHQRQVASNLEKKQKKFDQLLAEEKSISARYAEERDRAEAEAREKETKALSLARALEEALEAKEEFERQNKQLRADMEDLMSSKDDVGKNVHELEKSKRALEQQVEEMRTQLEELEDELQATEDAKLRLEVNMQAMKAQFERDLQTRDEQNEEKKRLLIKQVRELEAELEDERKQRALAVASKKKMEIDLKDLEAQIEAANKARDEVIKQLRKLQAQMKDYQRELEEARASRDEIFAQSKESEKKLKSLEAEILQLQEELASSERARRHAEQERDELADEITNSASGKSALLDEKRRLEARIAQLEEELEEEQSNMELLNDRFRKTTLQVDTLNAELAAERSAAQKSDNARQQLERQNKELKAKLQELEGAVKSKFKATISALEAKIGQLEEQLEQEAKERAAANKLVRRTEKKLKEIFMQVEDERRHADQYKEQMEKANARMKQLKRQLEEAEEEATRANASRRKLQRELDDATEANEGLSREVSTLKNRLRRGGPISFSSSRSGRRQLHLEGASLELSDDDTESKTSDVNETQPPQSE
UniProt Q7Z406: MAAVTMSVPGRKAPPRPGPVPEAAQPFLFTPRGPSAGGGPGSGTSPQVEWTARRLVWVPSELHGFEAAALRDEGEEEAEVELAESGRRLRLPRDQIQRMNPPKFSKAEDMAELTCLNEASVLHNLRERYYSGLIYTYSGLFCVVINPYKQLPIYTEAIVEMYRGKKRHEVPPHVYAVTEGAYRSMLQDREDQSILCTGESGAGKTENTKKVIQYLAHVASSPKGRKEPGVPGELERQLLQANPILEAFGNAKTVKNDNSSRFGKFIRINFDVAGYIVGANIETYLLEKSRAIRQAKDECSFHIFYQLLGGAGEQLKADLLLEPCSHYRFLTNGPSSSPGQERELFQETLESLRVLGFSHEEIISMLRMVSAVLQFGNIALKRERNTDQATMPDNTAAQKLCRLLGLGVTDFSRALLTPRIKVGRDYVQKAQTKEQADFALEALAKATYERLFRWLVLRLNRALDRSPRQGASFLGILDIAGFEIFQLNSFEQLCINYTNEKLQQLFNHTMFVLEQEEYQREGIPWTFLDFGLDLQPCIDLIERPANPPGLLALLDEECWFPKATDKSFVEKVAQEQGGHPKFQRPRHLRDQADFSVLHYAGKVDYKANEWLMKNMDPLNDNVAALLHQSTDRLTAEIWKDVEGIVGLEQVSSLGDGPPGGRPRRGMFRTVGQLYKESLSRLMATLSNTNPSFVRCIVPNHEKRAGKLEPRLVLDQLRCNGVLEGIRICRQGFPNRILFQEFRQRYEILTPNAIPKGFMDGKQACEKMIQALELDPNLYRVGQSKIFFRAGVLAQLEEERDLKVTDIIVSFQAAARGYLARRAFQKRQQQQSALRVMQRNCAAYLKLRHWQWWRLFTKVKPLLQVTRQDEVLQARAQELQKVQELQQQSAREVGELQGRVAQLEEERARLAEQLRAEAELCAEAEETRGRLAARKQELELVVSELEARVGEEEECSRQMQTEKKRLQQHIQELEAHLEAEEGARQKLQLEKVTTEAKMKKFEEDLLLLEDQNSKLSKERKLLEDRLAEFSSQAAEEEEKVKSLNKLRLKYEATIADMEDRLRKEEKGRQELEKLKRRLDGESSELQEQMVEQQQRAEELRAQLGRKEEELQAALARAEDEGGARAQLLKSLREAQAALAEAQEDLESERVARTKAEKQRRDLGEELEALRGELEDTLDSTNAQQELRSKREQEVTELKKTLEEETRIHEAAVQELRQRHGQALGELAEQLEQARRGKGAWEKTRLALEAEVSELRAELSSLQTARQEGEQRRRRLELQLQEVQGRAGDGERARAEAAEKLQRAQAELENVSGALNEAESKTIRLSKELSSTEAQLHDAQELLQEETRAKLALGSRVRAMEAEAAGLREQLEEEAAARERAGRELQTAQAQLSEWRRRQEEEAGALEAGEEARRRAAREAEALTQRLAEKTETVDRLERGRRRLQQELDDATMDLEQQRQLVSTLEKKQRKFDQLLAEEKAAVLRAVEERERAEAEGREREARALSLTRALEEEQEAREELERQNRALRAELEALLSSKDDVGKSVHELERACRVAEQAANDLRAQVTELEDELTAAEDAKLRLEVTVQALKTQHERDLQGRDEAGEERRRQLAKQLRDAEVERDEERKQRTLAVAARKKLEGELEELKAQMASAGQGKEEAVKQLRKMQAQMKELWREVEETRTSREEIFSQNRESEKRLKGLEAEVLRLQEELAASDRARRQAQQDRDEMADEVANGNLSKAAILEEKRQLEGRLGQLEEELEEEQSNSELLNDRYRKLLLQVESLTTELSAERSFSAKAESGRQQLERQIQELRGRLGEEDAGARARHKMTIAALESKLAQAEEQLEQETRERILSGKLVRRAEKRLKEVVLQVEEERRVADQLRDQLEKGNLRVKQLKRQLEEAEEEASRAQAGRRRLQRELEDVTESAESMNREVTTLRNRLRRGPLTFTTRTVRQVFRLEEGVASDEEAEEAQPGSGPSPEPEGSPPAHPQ
UniProt O43707: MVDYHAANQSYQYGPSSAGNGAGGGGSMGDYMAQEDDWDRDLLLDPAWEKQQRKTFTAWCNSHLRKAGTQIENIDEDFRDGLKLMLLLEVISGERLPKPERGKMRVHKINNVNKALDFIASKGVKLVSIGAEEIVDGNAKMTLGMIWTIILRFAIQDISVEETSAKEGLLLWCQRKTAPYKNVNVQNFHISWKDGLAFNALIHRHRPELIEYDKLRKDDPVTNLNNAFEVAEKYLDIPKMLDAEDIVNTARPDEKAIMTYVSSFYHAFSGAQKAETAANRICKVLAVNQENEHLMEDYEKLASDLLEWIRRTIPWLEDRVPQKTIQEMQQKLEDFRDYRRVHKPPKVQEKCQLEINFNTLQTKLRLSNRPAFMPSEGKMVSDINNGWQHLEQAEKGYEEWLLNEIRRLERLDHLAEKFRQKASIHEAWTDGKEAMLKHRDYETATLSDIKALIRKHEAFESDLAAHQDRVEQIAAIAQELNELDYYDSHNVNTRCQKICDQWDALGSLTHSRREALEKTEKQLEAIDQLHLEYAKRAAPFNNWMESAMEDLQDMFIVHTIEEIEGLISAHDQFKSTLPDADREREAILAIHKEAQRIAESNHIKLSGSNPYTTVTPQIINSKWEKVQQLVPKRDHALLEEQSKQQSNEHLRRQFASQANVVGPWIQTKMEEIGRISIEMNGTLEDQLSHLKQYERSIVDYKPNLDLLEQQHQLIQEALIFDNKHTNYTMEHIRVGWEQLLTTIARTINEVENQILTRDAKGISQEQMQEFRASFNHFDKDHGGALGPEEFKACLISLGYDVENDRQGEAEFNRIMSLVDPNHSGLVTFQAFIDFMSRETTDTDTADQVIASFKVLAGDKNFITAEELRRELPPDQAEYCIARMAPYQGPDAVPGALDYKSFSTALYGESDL

biological target: T1, SEPT9-GFP (UniProt Q9UHD8); assay: affinity purification with mass spectrometry; pulldowns of SEPT9-GFP overexpressed in DLD-1 cells
T1 sequence: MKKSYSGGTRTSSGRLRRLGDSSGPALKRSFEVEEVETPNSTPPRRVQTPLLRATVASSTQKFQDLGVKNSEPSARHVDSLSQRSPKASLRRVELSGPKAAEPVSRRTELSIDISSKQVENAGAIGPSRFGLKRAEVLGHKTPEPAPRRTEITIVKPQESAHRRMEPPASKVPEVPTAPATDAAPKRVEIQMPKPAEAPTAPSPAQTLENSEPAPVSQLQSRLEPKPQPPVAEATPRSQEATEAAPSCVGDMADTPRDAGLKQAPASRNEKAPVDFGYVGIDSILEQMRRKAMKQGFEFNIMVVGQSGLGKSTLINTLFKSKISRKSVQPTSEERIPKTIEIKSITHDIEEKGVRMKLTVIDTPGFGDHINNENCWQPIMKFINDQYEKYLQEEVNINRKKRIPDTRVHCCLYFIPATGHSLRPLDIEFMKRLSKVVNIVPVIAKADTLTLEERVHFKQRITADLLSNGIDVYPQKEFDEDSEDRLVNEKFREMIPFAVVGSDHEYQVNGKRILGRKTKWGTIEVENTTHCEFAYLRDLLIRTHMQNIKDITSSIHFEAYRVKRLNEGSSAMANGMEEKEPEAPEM

| binding | Substance |
| --- | --- |
| binds | NMIIB (from UniProt P35580 1-1976) |
| binds | nonmuscle myosin IIC (from UniProt Q7Z406 1-1995) |
| binds | α-actinin-4 (from UniProt O43707 1-911) |

No constants are given. Whether binding was seen depends on the method and setting. Binding seen in cells or lysates may run through a third protein. Here binding means that the protein was enriched with, or labelled near, the bait; the list need not be complete. Where a sequence is shown, tags or fusion partners need not be part of it.
